Measurements: patent publication US20240368224A1 (priority 2021, published 2024)

Test: Serum stability assay
Format: in vitro ADME
Details: 25% human serum in DPBS, 37° C., read-out: peptide remaining intact

remaining at 24 h, 100 μM: ~85%
Structure (SMILES): C[C@@H](NC(=O)[C@H](Cc1ccccc1)NC(=O)[C@@H](CCCNC(=N)N)NC(=O)[C@H](CCCN)NC(=O)[C@@H]1CNC(=O)c2cc3cc(c2)C(=O)N[C@H](Cc2ccc4ccccc4c2)C(=O)N[C@@H](CO)C(=O)N[C@@H](CC(N)=O)C(=O)N[C@H](Cc2ccc4ccccc4c2)C(=O)N[C@@H](c2ccccc2)C(=O)N[C@@H](CCCCNC3=O)C(=O)N[C@H](Cc2ccccc2)C(=O)N[C@@H](CCC(N)=O)C(=O)N[C@H](CCCNC(=N)N)C(=O)N[C@@H](CCCNC(=N)N)C(=O)N1)C(N)=O [Peptide B4-27]
